PubChem BioAssay AID1259308 – NCATS, 2017
This is a random part of about 59,000 deposited reagents. In the full data, about 1,510 (2.6%) were called active. 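Calls use total luciferase alone and ignore viability, so some active siRNAs may act by altering cell number.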 A number with no mark means an inactive call. Reagents against one gene are numbered here.

- Screen: 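Genes whose loss raises luciferase production in HEK293 cells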 (primary screen)
- System: human HEK293 embryonic kidney cells stably expressing firefly luciferase (HEK-CMV-Luc2-Hygro)
- Reagent: single siRNA against human genes, 0.8 pmol siRNA per well
- Timing: 72 h
- Read-out: 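Luciferase light (ONE-Glo) measured on one replicate plate set and viability (CellTiter-Glo) on the other, scaled to a negative control siRNA, with robust z-scores and luciferase per cell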
- Scale: total luciferase, z-score and total luciferase, % of control: higher = more reporter protein produced; luciferase per cell, z-score: higher = more reporter output per viable cell; viable cells, % of control: higher = more viable cells
- Hit rule: 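Active when the median/MAD z-score for overall luciferase is greater than 3; a gene was taken forward for validation with new siRNAs if at least two of its three siRNAs passed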
- Calls: active = raised luciferase; inactive = no rise

Gene | siRNA no. | total luciferase, z-score | total luciferase, % of control | luciferase per cell, z-score | viable cells, % of control
HSD17B11 (GeneID 51170) | 1 | 2.09 | 123 | 2.47 | 72
HSD17B11 (GeneID 51170) | 2 | -0.991 | 62.2 | -0.614 | 81.7
HSD17B11 (GeneID 51170) | 3 | -1.14 | 59.2 | -1.31 | 93.4
HMGA1 (GeneID 3159) | 1 | -0.514 | 71.7 | -0.848 | 100
HMGA1 (GeneID 3159) | 2 | -0.294 | 76 | -0.926 | 108
HMGA1 (GeneID 3159) | 3 | -0.0759 | 80.4 | 1.17 | 65.9
PDE1B (GeneID 5153) | 1 | 0.0413 | 82.7 | -0.508 | 106
PDE1B (GeneID 5153) | 2 | -2.29 | 36.3 | -2.14 | 71.3
PDE1B (GeneID 5153) | 3 | -0.245 | 77 | -0.587 | 100
ARHGAP4 (GeneID 393) | 1 | 1.33 | 108 | 0.917 | 95.1
ARHGAP4 (GeneID 393) | 2 | -1 | 61.9 | 0.407 | 62.2
ARHGAP4 (GeneID 393) | 3 | -0.819 | 65.6 | 0.118 | 71.1
GRM3 (GeneID 2913) | 1 | -0.701 | 67.9 | -1.42 | 110
GRM3 (GeneID 2913) | 2 | 0.891 | 99.6 | -0.3 | 120
GRM3 (GeneID 2913) | 3 | -0.846 | 65.1 | 0.841 | 58.3
IGFL2-AS1 (GeneID 645553) | 1 | -0.0774 | 80.3 | 0.358 | 81.7
IGFL2-AS1 (GeneID 645553) | 2 | 2.29 | 127 | 3.07 | 63.5
IGFL2-AS1 (GeneID 645553) | 3 | -0.0589 | 80.7 | -0.343 | 98.7
BARD1 (GeneID 580) | 1 | 3.09 (active) | 143 | 2.25 | 88.5
BARD1 (GeneID 580) | 2 | 0.746 | 96.7 | 0.924 | 84.8
BARD1 (GeneID 580) | 3 | -0.879 | 64.4 | -0.413 | 80.2
KLC4 (GeneID 89953) | 1 | -1.64 | 49.3 | 0.68 | 46.1
KLC4 (GeneID 89953) | 2 | -0.164 | 78.6 | -0.772 | 108
KLC4 (GeneID 89953) | 3 | -0.388 | 74.2 | -0.187 | 87.1

Limited to “viable cells, % of control”, for 4 of the entries above:
HSD17B11 (GeneID 51170) #3 = 93.4
HMGA1 (GeneID 3159) #1 = 100
HMGA1 (GeneID 3159) #2 = 108
HMGA1 (GeneID 3159) #3 = 65.9
